For 78 substances, growth estimate results are on record in the supplement of paper PMC5949888.

Most values lie at the floor of the assay. Slopes are relative: functional sequences can read slightly below zero.

The test system of the series is Saccharomyces cerevisiae PS128 hsf1 delta, HSF1(1-493) fusion. Put plainly: growth estimate (transactivation domain function in HSF1 fusion, heat-shock survival) (a.u. (slope of normalised read count over time)); higher = stronger growth at 37°C, i.e. more transactivation activity. Particulars: library: random library.
Regarding YFHTL, the growth estimate is < -0.25.

DWTRIGGPISKGRR: the growth estimate is < -0.25.

PVSPSQK: the growth estimate is < -0.25.

Turning to LIMRTRVG, the growth estimate is < -0.25.

On to FVRFVVAQVKYLCERPLISV, for which the growth estimate was < -0.25.

For the substance ERRLVCGSC, the growth estimate was < -0.25.

With YQPATGLLADVPDVESVRPL, the growth estimate is < -0.25.

As to FSATDGVRSEGFGILKPTGH, the growth estimate is < -0.25.

As for SLGPANSYPRVRG, the growth estimate was < -0.25.

For the substance PDDWHAWPARKIGLKWGRLK, the growth estimate was -0.208.

Turning to RVRT, the growth estimate was < -0.25.

Turning to GSIDSKRRIATGIRAKDVLW, the growth estimate is < -0.25.

For the substance ESSEETA, the growth estimate is -0.195.

As to ERLRRKSNLLPGGKPHCLMI, the growth estimate is < -0.25.

IVRSFLLWVLSVMQCSRRLT: the growth estimate is < -0.25.

With TSIVRYSKWTRPRAI, the growth estimate was < -0.25.

For GHCGQACISM, the growth estimate was < -0.25.

Take SPDCLFVLGYVSRCIVAG: the growth estimate is < -0.25.

In the case of LECSSCLMHNASAGRGCACD, the growth estimate was < -0.25.

With SREQDAFSQGNGLGNGEGDV, the growth estimate is < -0.25.

For MGATGSPGFGNSVSKLQDYI, the growth estimate is < -0.25.

TFGLYLSDGVCDSQAIGAC: the growth estimate is < -0.25.

Consider KGNSMDSIHDLVQL, for which the growth estimate is < -0.25.

With PDSNPVVI, the growth estimate is < -0.25.

As for SRATGEETRRRPA, the growth estimate was < -0.25.

Regarding ARYELGSVGEPDSELIATDR, the growth estimate was < -0.25.

Consider KLERFRPERSCFYILGSHHR, for which the growth estimate is < -0.25.

With CHTRVVCIGRSR, the growth estimate is < -0.25.

As to DISKSRKRTTWDACRPVVPA, the growth estimate is < -0.25.

For the substance CRVAPRGLCYPAPYQGRMIR, the growth estimate is < -0.25.

With MKRCKPMTLRGGLTWAKSPP, the growth estimate is < -0.25.

In the case of AETTADGDSQIPFLDLWFIP, the growth estimate was < -0.25.

On to VHYIDRGVCSIVYATRR, for which the growth estimate was < -0.25.

Take LVSLVILLLVRIHLCQSIEY: the growth estimate is < -0.25.

In the case of QGVVLFILGTHGQRLH, the growth estimate is < -0.25.

On to RGGYKSQPTEQLY, for which the growth estimate was < -0.25.

In the case of RAERNAGKVWELCPCRSEDT, the growth estimate was < -0.25.

Regarding SDREHRACENA, the growth estimate is < -0.25.

Regarding VPAKGSQKRIVVVVRRHTAL, the growth estimate is < -0.25.

With TSADGTTRTDSKGNSSFCSR, the growth estimate is < -0.25.

Turning to DGL, the growth estimate is -0.243.

Turning to YKIIRKEPWHFRL, the growth estimate was < -0.25.

With CTCGGLVRLGDKIKARN, the growth estimate was < -0.25.

As to KHTTVLDQLKLIKHASCKVG, the growth estimate was < -0.25.

Regarding DKTRAARIQGS, the growth estimate was < -0.25.

For SDRLWEWGRLGTGITAAYGS, the growth estimate was < -0.25.

Turning to LVGHSER, the growth estimate was < -0.25.

Consider RWFVVTFS, for which the growth estimate was < -0.25.

With GSSHGQCTGPGTIGGHRASI, the growth estimate is < -0.25.

SCRNKLASPKGGV: the growth estimate is < -0.25.

As for APPLASALV, the growth estimate was < -0.25.

DSQWPVVSPNFIVMYRAV: the growth estimate was < -0.25.

On to REFHSVQSLGA, for which the growth estimate was < -0.25.

For the substance LNPHMVL, the growth estimate is < -0.25.

As for PSLFLGSCWFCRSYENPS, the growth estimate was < -0.25.

In the case of NRLLAPLAVWWLTQAMSALL, the growth estimate is < -0.25.

As to LFPMG, the growth estimate was < -0.25.

For GVCCSRARTVGDLGRISLKG, the growth estimate is < -0.25.

Turning to SVSPQGMIIPTCY, the growth estimate is < -0.25.

Take HCKRTYLDVLGSSRGRCSRQ: the growth estimate is < -0.25.

In the case of GWCVQKW, the growth estimate is < -0.25.

As for LRRAYGTLTKNVSLRIFRGR, the growth estimate is < -0.25.

With NVGRPLPSAGRACSDSTSSC, the growth estimate was < -0.25.

With NIVRSGSRLRARFISMNRYW, the growth estimate was < -0.25.

Turning to VKMCSP, the growth estimate was < -0.25.

As to PPFVNC, the growth estimate was < -0.25.

On to PWGLTCF, for which the growth estimate was < -0.25.

Take LYDGSPRCPNGTHPPRSEGC: the growth estimate was < -0.25.

With QDPY, the growth estimate is < -0.25.

As to CGARCVLAPSWSILYTVLPF, the growth estimate is < -0.25.

Take CGSQISLCQLAIV: the growth estimate is < -0.25.

For the substance PRGCQAHRCSGGVSVQLILA, the growth estimate is < -0.25.

Turning to LFSWTTR, the growth estimate is < -0.25.

Turning to VVNAPKWPGIRISGREEPGS, the growth estimate was < -0.25.

Turning to RRVYGWGIELNVV, the growth estimate was < -0.25.

Consider MKHPVHETSNN, for which the growth estimate is < -0.25.

Consider CAMEIAG, for which the growth estimate was < -0.25.

As to KRFTHRLSPVRLQGRRKLPE, the growth estimate is < -0.25.
